No constants are given. Whether binding was seen depends on the method and setting. Binding seen in cells or lysates may run through a third protein. Here binding means that the protein was enriched with, or labelled near, the bait; the list need not be complete.
Target: T1, Coiled-coil alpha-helical rod protein 1 (CCHCR1), bait of the BioID experiment (human) (UniProt Q8TD31)
T1 sequence: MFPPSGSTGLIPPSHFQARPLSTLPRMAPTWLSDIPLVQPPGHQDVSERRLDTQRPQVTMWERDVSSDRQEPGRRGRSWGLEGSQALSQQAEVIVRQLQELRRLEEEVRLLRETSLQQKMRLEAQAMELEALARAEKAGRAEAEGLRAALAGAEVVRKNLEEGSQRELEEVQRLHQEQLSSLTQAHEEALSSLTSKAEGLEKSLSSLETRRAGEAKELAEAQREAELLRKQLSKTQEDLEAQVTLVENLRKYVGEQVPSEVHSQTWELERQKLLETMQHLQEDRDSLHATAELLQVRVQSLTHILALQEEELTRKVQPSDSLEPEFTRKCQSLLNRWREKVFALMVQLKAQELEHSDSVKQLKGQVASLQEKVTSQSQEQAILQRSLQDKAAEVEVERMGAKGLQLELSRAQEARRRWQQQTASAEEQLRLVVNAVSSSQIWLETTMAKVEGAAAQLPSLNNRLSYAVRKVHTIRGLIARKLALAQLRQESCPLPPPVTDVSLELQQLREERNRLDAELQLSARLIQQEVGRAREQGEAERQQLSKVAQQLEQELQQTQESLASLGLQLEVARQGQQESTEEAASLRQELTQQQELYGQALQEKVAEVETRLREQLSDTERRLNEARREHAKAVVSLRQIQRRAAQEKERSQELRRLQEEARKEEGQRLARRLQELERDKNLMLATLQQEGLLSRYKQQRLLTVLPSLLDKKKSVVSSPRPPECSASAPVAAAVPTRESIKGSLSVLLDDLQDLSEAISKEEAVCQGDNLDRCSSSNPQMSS
Experiment: proximity labelling; proximity-dependent biotinylation (BioID) of CCHCR1 coupled with LC-MS/MS; cells and construct not told

B1: Enhancer of mRNA-decapping protein 4, found by BioID (protein, UniProt Q6P2E9 1-1401)
chain: MASCASIDIEDATQHLRDILKLDRPAGGPSAESPRPSSAYNGDLNGLLVPDPLCSGDSTSANKTGLRTMPPINLQEKQVICLSGDDSSTCIGILAKEVEIVASSDSSISSKARGSNKVKIQPVAKYDWEQKYYYGNLIAVSNSFLAYAIRAANNGSAMVRVISVSTSERTLLKGFTGSVADLAFAHLNSPQLACLDEAGNLFVWRLALVNGKIQEEILVHIRQPEGTPLNHFRRIIWCPFIPEESEDCCEESSPTVALLHEDRAEVWDLDMLRSSHSTWPVDVSQIKQGFIVVKGHSTCLSEGALSPDGTVLATASHDGYVKFWQIYIEGQDEPRCLHEWKPHDGRPLSCLLFCDNHKKQDPDVPFWRFLITGADQNRELKMWCTVSWTCLQTIRFSPDIFSSVSVPPSLKVCLDLSAEYLILSDVQRKVLYVMELLQNQEEGHACFSSISEFLLTHPVLSFGIQVVSRCRLRHTEVLPAEEENDSLGADGTHGAGAMESAAGVLIKLFCVHTKALQDVQIRFQPQLNPDVVAPLPTHTAHEDFTFGESRPELGSEGLGSAAHGSQPDLRRIVELPAPADFLSLSSETKPKLMTPDAFMTPSASLQQITASPSSSSSGSSSSSSSSSSSLTAVSAMSSTSAVDPSLTRPPEELTLSPKLQLDGSLTMSSSGSLQASPRGLLPGLLPAPADKLTPKGPGQVPTATSALSLELQEVEPLGLPQASPSRTRSPDVISSASTALSQDIPEIASEALSRGFGSSAPEGLEPDSMASAASALHLLSPRPRPGPELGPQLGLDGGPGDGDRHNTPSLLEAALTQEASTPDSQVWPTAPDITRETCSTLAESPRNGLQEKHKSLAFHRPPYHLLQQRDSQDASAEQSDHDDEVASLASASGGFGTKVPAPRLPAKDWKTKGSPRTSPKLKRKSKKDDGDAAMGSRLTEHQVAEPPEDWPALIWQQQRELAELRHSQEELLQRLCTQLEGLQSTVTGHVERALETRHEQEQRRLERALAEGQQRGGQLQEQLTQQLSQALSSAVAGRLERSIRDEIKKTVPPCVSRSLEPMAGQLSNSVATKLTAVEGSMKENISKLLKSKNLTDAIARAAADTLQGPMQAAYREAFQSVVLPAFEKSCQAMFQQINDSFRLGTQEYLQQLESHMKSRKAREQEAREPVLAQLRGLVSTLQSATEQMAATVAGSVRAEVQHQLHVAVGSLQESILAQVQRIVKGEVSVALKEQQAAVTSSIMQAMRSAAGTPVPSAHLDCQAQQAHILQLLQQGHLNQAFQQALTAADLNLVLYVCETVDPAQVFGQPPCPLSQPVLLSLIQQLASDLGTRTDLKLSYLEEAVMHLDHSDPITRDHMGSVMAQVRQKLFQFLQAEPHNSLGKAARRLSLMLHGLVTPSLP
  binding: binds
